Reference: PMC12040169 (PLOS Biology, 2025)
The other results are listed elsewhere or left out.

The compounds below were run on T1, CTL2-GFP (C. trachomatis L2/434/Bu, GFP-expressing). Settings: bulk GFP, single well; 28.5 h, 10 µM; inhibitor.
T1 construct: L2/434/Bu, GFP-expressing
Parameters: species or system HeLa; Intracellular C. trachomatis growth in HeLa cells, bulk GFP fluorescence relative to DMSO

Point of comparison: CC(C)C1SC(=NC2CC3CCC2C3)N(C)C1=O (stereo not drawn) [CBK076727], “% of control remaining” value 126.58%. Against it:
- COC(=O)CCc1ccc(S(=O)(=O)N2CCCN(Cc3cc(F)cc(F)c3)CC2)cc1 [CBK062990] — lower, 115.732%
- CCc1cn(C[C@H](NC(=O)c2ccco2)C(=O)O)c(=O)[nH]c1=O [CBK289670] — higher, 132.078%
- COc1ccccc1-c1nccnc1NCc1cccs1 [CBK088682] — lower, 100.913%
- COc1cc(NC(=O)CSc2ncnc3sc4c(c23)CCCC4)cc(OC)c1 [CBK267547] — lower, 120.352%
- CCc1ncsc1C(=O)NC1CCCN(c2ccn(C)n2)C1=O (stereo not drawn) [CBK306498] — lower, 112.709%
- CSc1ccc(-c2cn3ccnc3c(Nc3ccccc3)n2)cc1 [CBK066537] — higher, 200.591%
- C=CCN1C(=O)CC2(C1=O)C(=O)N(C)c1ccccc12 (stereo not drawn) [CBK075472] — lower, 87.9782%
- O=c1c2ccccc2[nH]c(=S)n1CCCN1CCC(Cc2ccccc2)CC1 [CBK267952] — higher, 136.298%
- COc1ccc(C2CC(c3c(-c4ccccc4)c4cc(Cl)ccc4[nH]c3=O)=NN2C(=O)CCC(=O)O)cc1OC (stereo not drawn) [CBK296128] — higher, 144.08%
- CCN(CC)C(=O)c1sccc1NS(=O)(=O)c1ccc(OC)c(OC)c1 [CBK004596] — lower, 94.6797%
- O=C1c2ccccc2NC(c2cnc3ccccc3n2)N1O (stereo not drawn) [CBK288357] — higher, 139.283%
- N#Cc1cc(SCCC(=O)O)c(N2CCOCC2)cc1C#N [CBK269212] — higher, 133.34%
- O=C(CCn1cccn1)N1Cc2ccccc2CC1C1CCOCC1 (stereo not drawn) [CBK282262] — lower, 120.896%
- CCOC(=O)C1(C2CCCCC2)CCN(C(=O)c2cccnc2)CC1 [CBK137104T] — lower, 111.994%
- Fc1c(F)c(Oc2ccccc2Cl)c(F)c(F)c1/C=C/CN1CCOCC1 [CBK269318C] — lower, 126.348%
- CC(C)(C)c1cn(C[C@H]2CC3CCN2C[C@@H]3C(=O)NCc2ccc(F)cc2)nn1 (stereo partly drawn) [CBK289081] — higher, 147.593%
- CCOC(CCNC(=O)c1cnc(Nc2ccccc2OC)c2ccccc12)OCC [CBK291184] — higher, 131.426%
- COc1ccc(C)cc1NC(=O)CSc1nnc(-c2ccccc2Cl)n1-c1ccccc1 [CBK267538] — lower, 101.907%
- CN1CCN(S(=O)(=O)c2ccc(NC(=O)c3cc(-c4ccncc4)nc4ccc(Cl)cc34)cc2)CC1 [CBK267730] — higher, 160.836%
- O=C(/C=C/c1ccco1)NC(=S)Nc1ccccc1[N+](=O)[O-] [CBK264375] — lower, 89.4993%
- CCn1nc(C(C)C)cc1C(=O)N1CCN(C)CC1c1ccccc1 (stereo not drawn) [CBK282025] — lower, 108.219%
- COc1ccc(NC(=O)c2cnccn2)c(OC)c1 [CBK262240] — lower, 101.92%
- Cc1[nH]c(=O)c(C(=O)Nc2ccc(-n3ccc(C(N)=O)n3)cc2)cc1-c1ccccc1 [CBK291194] — lower, 88.344%
- O=C(CSc1n[nH]c(-c2ccccc2Cl)n1)Nc1ccccc1F [CBK265901] — lower, 118.817%
- C=CCn1c2cc(C)sc2c2cnn(CC(=O)NC3CC3)c(=O)c21 [CBK284149] — lower, 120.809%
- CC1(CNC(=O)c2cc(C3CC3)nc3ccccc23)COC1 [CBK281752] — higher, 149.373%
- Cn1ccnc1C1(O)CCN(C(=O)c2cccc(F)c2)CC1 [CBK283543] — lower, 117.093%
- COc1cc(F)ccc1-c1ccc(N)c2ccccc12 [CBK084319] — higher, 165.623%
- O=C(O)C1CCCCN1S(=O)(=O)c1ccc(Cl)cc1 (stereo not drawn) [CBK077418] — lower, 76.7703%
- Cc1ccc(CCC(=O)C(C#N)c2nc3ccccc3s2)o1 (stereo not drawn) [CBK268944] — lower, 82.0599%
- Cc1cc(C)n(C(C)CC(=O)NCC(C)N2CCC(C)CC2)n1 (stereo not drawn) [CBK282104] — lower, 109.552%
- O=[N+]([O-])c1cc(S(=O)(=O)Nc2ccccc2)ccc1N1CCN2CCCC2C1 (stereo not drawn) [CBK001248] — higher, 132.51%
- CCc1nc2n(n1)CC(NCc1nc(C)ccc1O)CC2 (stereo not drawn) [CBK306107] — lower, 118.728%
- COc1cc2c(cc1CN(Cc1ccc3c(c1)OCO3)CC(C)O)CCC2 (stereo not drawn) [CBK286473] — lower, 99.4738%
- O=C(NC1CCCC1)c1ccc2nccnc2c1 [CBK200217] — lower, 105.413%
- Cc1cccc(OCc2nnc(SCc3nc4ccccc4c(=O)[nH]3)o2)c1 [CBK269030] — higher, 136.403%
- O=C(O)CCc1ccc(-c2cc(N3CCN(CC(=O)N4CCCC4)CC3)ncn2)cc1 [CBK091079] — higher, 140.922%
- Clc1ccc(CN2CCN(CCc3ccccc3)CC2)cc1Cl [CBK126420] — higher, 129.801%
- O=C(NCCNC(=O)c1ccccn1)c1ccccn1 [CBK265654] — lower, 124.38%
- Cc1cc(Cl)ccc1NC(=O)CCC(=O)N/N=C/c1ccc(O)cc1 [CBK261974] — lower, 119.202%
- CN(Cc1ccccc1)C(=O)[C@@H]1Cc2[nH]cnc2CN1Cc1cc2ccccc2o1 [CBK288978] — lower, 81.1875%
- COc1ccccc1-c1cccc(C2CCCN(C(=O)CCCc3ccccc3)C2)n1 (stereo not drawn) [CBK286217] — lower, 88.3049%
- COc1ccc(Oc2nccnc2N2CCN(CCCC#N)CC2)cc1OC [CBK083056T] — lower, 124.371%
- CNCC1CCCN(C(=O)c2ccc(Oc3cccnc3)cc2)C1 (stereo not drawn) [CBK304479] — higher, 131.277%
- Cc1ccc2c(N)c(C(=O)c3cccs3)sc2n1 [CBK115369] — lower, 100%
- CN1CCN(c2nccnc2-c2ccoc2)CC1 [CBK088834] — higher, 129.735%
- CCCCNC(=O)N(O)C1N(C)C(=S)SC1(C)C (stereo not drawn) [CBK006880] — lower, 124.962%
- Clc1ccc(-c2c[nH]c([C@@H]3COCCN3Cc3c[nH]cn3)n2)cc1 [CBK289316] — lower, 109.21%
- O=C(COc1cccnc1)N[C@H]1C2CCCCC2[C@@H]1c1ccccc1 (stereo partly drawn) [CBK282951] — lower, 109.031%
- COc1cccc2cc(C(=O)C3=C(O)C(=O)N(CCN4CCOCC4)C3c3cccs3)oc12 (stereo not drawn) [CBK269433] — higher, 129.46%
- NC(=O)NC(CC(=O)N1CCCC1c1ccncc1)c1cccc(Br)c1 (stereo not drawn) [CBK306345] — higher, 129.915%
- O=C(NCCc1ccccc1)c1cc(Br)cnc1NCCCn1ccnc1 [CBK076421] — lower, 111.398%
- Cc1sc2ncn(CC(=O)NCc3nnc4n3CCC4)c(=O)c2c1C [CBK305654] — higher, 155.579%
- O=C1N/C(=N/c2ccccc2Cl)S/C1=C/c1ccc(-c2ccccc2Cl)o1 [CBK067752] — lower, 105.752%
- N=C(N)SCP(=O)(c1ccccc1)c1ccccc1 [CBK260990] — lower, 87.8526%
- Cc1cccc(C=C(Cl)c2nc3sc(C(=O)O)c(C)c3c(=O)[nH]2)c1 [CBK295626] — higher, 150.94%
- CCC1CCc2c(sc(NC(=O)c3cc(-c4ccc(C)cc4C)nc4ccccc34)c2C(=O)OC)C1 (stereo not drawn) [CBK262629] — lower, 118.094%
- O=C(O)c1cccc(NC(=O)c2cnc(-c3cccc(C(F)(F)F)c3)c(-c3cccc(CO)c3)c2)c1 [CBK037565] — lower, 126.435%
- O=C(Nc1cccc(-c2csnn2)c1)c1ccco1 [CBK270255] — lower, 124.975%
- N#Cc1cccc(CN2C[C@H](O)C[C@H]2c2nc(-c3ccc4c(c3)OCO4)no2)c1 [CBK288866] — higher, 140.121%
- O=S1(=O)CCC(c2nc(-c3ccc(Br)o3)no2)C1 (stereo not drawn) [CBK306134] — lower, 125.273%
- CN1CCN(C(=O)c2ccc(-c3nccnc3NCCc3cccnc3)cc2)CC1 [CBK036838] — higher, 130.806%
- O=C(CS(=O)(=O)c1ccccc1)Nc1ccc(OCc2ccccc2)cc1 [CBK269421] — lower, 80.2609%
- CSc1ccccc1C(=O)NCCN(C)C [CBK269757] — lower, 106.692%
- CS(=O)(=O)c1ccc(-n2nnnc2CN2CCC3(CCC3)C2)cc1 [CBK306262] — higher, 191.515%
- Cc1ccc(Cc2cnc(NC(=O)CN3CSCC3=O)s2)cc1Cl [CBK305001] — lower, 94.1059%
- Cn1cc(C2CCCCN2C(=O)c2cccc(C#N)c2)cn1 (stereo not drawn) [CBK304611] — higher, 126.849%
- O=C1OC[C@@H](c2ccccc2)N1C(=O)[C@@H]1CN(Cc2ccccc2)C[C@H]1c1cc2ccccc2o1 [CBK022599C] — lower, 93.5145%
- COc1ccc(C(C)C)cc1-c1cn2ccnc2c(Nc2cccc(OC(F)(F)C(F)F)c2)n1 [CBK038049] — higher, 148.481%
- O=S(=O)(Nc1cccc2cc[nH]c12)c1ccc(F)cc1F [CBK153586] — higher, 145.821%
- O=C(Oc1ccc(F)cc1C(=O)/C=C/c1ccccc1F)c1cccc([N+](=O)[O-])c1 [CBK264859] — lower, 66.9325%
- CCOC(=O)c1ccc(C2=NCCC2)[nH]1 [CBK011191] — lower, 122.578%
- O=C(NCCCNc1ccc(C(F)(F)F)cc1[N+](=O)[O-])c1ccc(Cl)cc1 [CBK263721] — lower, 123.323%
- CC(C)n1ccc2cc(C(=O)NC3CCOC(C)(C)C3)ccc21 (stereo not drawn) [CBK304366] — lower, 112.45%
- COCC(=O)N1CCN(C(=O)c2cccc(F)c2)C[C@H]1C(=O)OC [CBK289608] — lower, 106.48%
- CCNC(=O)C1(Cc2ccccc2-c2ccccc2C)CCN(C(=O)C2CCCCC2)CC1 [CBK285717] — lower, 103.144%
- CSc1ccccc1-n1nnnc1SCc1ccccc1 [CBK099033] — lower, 91.5787%
